Test results reported in the supplement of paper PMC4635364.
Counter-ions that a name gives are not always drawn. Some of the results follow. Single values are uncertain here, since repeats match poorly.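 ReNCell VM, a human fetal ventral-midbrain neural progenitor line, was differentiated without mitogens. Blinded raters scored images stained for doublecortin (early neurons) or tyrosine hydroxylase (dopaminergic neurons) against untreated wells (0 = no change). Scores were averaged across repeats and both raters, and compounds averaging 2 or more were selected as hits for retesting.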

Experiments:
ReNCell VM [1] = assay: neuronal differentiation score (DCX+ cell fraction vs untreated, manual image score) (score (-3 to 3)); higher = more neuronal differentiation; details: 2 uM, 2 weeks
ReNCell VM [2] = assay: dopaminergic neuron differentiation score (TH+ cell fraction vs untreated, manual image score) (score (0 to 3)); higher = more TH+ dopaminergic neuron differentiation; details: 2 uM, 4 weeks, BDNF 10 ng/ml + GDNF 10 ng/ml

c1ccc2c(c1)OCC(C1=NCCN1)O2 (stereo unspecified) [Idazoxan hydrochloride]
inactive: neuronal differentiation score (ReNCell VM [1]; library: LOPAC) 0 | neuronal differentiation score (ReNCell VM [1]; library: Prestwick) 0 | neuronal differentiation score (ReNCell VM [1]; library: Tocriscreen) 0 | dopaminergic neuron differentiation score (ReNCell VM [2]; library: LOPAC) 0 | dopaminergic neuron differentiation score (ReNCell VM [2]; library: Prestwick) 0 | dopaminergic neuron differentiation score (ReNCell VM [2]; library: Tocriscreen) 0

Oc1ccc2c3c1O[C@H]1c4[nH]c5c(c4C[C@@]4(O)[C@@H](C2)N(CC2CC2)CC[C@]314)C[C@@]1(O)[C@H]2Cc3ccc(O)c4c3[C@@]1(CCN2CC1CC1)[C@H]5O4 [nor-Binaltorphimine dihydrochloride]
inactive: neuronal differentiation score (ReNCell VM [1]; library: LOPAC) 0 | neuronal differentiation score (ReNCell VM [1]; library: Tocriscreen) 0 | dopaminergic neuron differentiation score (ReNCell VM [2]; library: LOPAC) 0 | dopaminergic neuron differentiation score (ReNCell VM [2]; library: Tocriscreen) 0

CCCCc1ccc(C(=O)O)nc1 [Fusaric acid]
inactive: neuronal differentiation score (ReNCell VM [1]; library: LOPAC) 0 | neuronal differentiation score (ReNCell VM [1]; library: Phytochemical) 0 | dopaminergic neuron differentiation score (ReNCell VM [2]; library: LOPAC) 0 | dopaminergic neuron differentiation score (ReNCell VM [2]; library: Phytochemical) 0

O=C(O)CCCc1ccc(N(CCCl)CCCl)cc1 [Chlorambucil]
inactive: neuronal differentiation score (ReNCell VM [1]; library: LOPAC) 0 | neuronal differentiation score (ReNCell VM [1]; library: Prestwick) 0 | dopaminergic neuron differentiation score (ReNCell VM [2]; library: LOPAC) 0 | dopaminergic neuron differentiation score (ReNCell VM [2]; library: Prestwick) 0

Cc1nnc2ccc(-c3cccc(C(F)(F)F)c3)nn12
inactive: neuronal differentiation score (ReNCell VM [1]; library: LOPAC) 0 | neuronal differentiation score (ReNCell VM [1]; library: Tocriscreen) 0 | dopaminergic neuron differentiation score (ReNCell VM [2]; library: LOPAC) 0 | dopaminergic neuron differentiation score (ReNCell VM [2]; library: Tocriscreen) 0

Arranged by count of non-hydrogen atoms (descending): some entries from above
Oc1ccc2c3c1O[C@H]1c4[nH]c5c(c4C[C@@]4(O)[C@@H](C2)N(CC2CC2)CC[C@]314)C[C@@]1(O)[C@H]2Cc3ccc(O)c4c3[C@@]1(CCN2CC1CC1)[C@H]5O4 [nor-Binaltorphimine dihydrochloride]
inactive: neuronal differentiation score (ReNCell VM [1]; library: LOPAC) 0 | neuronal differentiation score (ReNCell VM [1]; library: Tocriscreen) 0 | dopaminergic neuron differentiation score (ReNCell VM [2]; library: LOPAC) 0 | dopaminergic neuron differentiation score (ReNCell VM [2]; library: Tocriscreen) 0

O=C(O)CCCc1ccc(N(CCCl)CCCl)cc1 [Chlorambucil]
inactive: neuronal differentiation score (ReNCell VM [1]; library: LOPAC) 0 | neuronal differentiation score (ReNCell VM [1]; library: Prestwick) 0 | dopaminergic neuron differentiation score (ReNCell VM [2]; library: LOPAC) 0 | dopaminergic neuron differentiation score (ReNCell VM [2]; library: Prestwick) 0

c1ccc2c(c1)OCC(C1=NCCN1)O2 (stereo unspecified) [Idazoxan hydrochloride]
inactive: neuronal differentiation score (ReNCell VM [1]; library: LOPAC) 0 | neuronal differentiation score (ReNCell VM [1]; library: Prestwick) 0 | neuronal differentiation score (ReNCell VM [1]; library: Tocriscreen) 0 | dopaminergic neuron differentiation score (ReNCell VM [2]; library: LOPAC) 0 | dopaminergic neuron differentiation score (ReNCell VM [2]; library: Prestwick) 0 | dopaminergic neuron differentiation score (ReNCell VM [2]; library: Tocriscreen) 0

(next part)

CN(C)C(=O)Oc1cccc([N+](C)(C)C)c1 [Neostigmine bromide]
inactive: neuronal differentiation score (ReNCell VM [1]; library: LOPAC) 0 | neuronal differentiation score (ReNCell VM [1]; library: Phytochemical) 0 | neuronal differentiation score (ReNCell VM [1]; library: Prestwick) 0 | dopaminergic neuron differentiation score (ReNCell VM [2]; library: LOPAC) 0 | dopaminergic neuron differentiation score (ReNCell VM [2]; library: Phytochemical) 0 | dopaminergic neuron differentiation score (ReNCell VM [2]; library: Prestwick) 0

C[C@@]12C(=O)OC(=O)[C@]1(C)[C@H]1CC[C@@H]2O1 [Cantharidin]
inactive: neuronal differentiation score (ReNCell VM [1]; library: LOPAC) 0 | neuronal differentiation score (ReNCell VM [1]; library: Phytochemical) 0 | neuronal differentiation score (ReNCell VM [1]; library: Tocriscreen) 0 | dopaminergic neuron differentiation score (ReNCell VM [2]; library: LOPAC) 0 | dopaminergic neuron differentiation score (ReNCell VM [2]; library: Phytochemical) 0 | dopaminergic neuron differentiation score (ReNCell VM [2]; library: Tocriscreen) 0

CNC(=O)Oc1ccc2c(c1)[C@]1(C)CCN(C)[C@@H]1N2C [Eserine sulfate, physostigmine sulfate]
inactive: neuronal differentiation score (ReNCell VM [1]; library: Phytochemical) 1 | neuronal differentiation score (ReNCell VM [1]; library: Prestwick) 0 | dopaminergic neuron differentiation score (ReNCell VM [2]; library: Phytochemical) 0 | dopaminergic neuron differentiation score (ReNCell VM [2]; library: Prestwick) 0

CC(C)C[C@H]1C(=O)N2CCC[C@H]2[C@]2(O)O[C@](NC(=O)[C@@H]3C=C4c5cccc6[nH]c(Br)c(c56)C[C@H]4N(C)C3)(C(C)C)C(=O)N12 [Bromocryptine mesylate]
inactive: neuronal differentiation score (ReNCell VM [1]; library: Phytochemical) 0 | neuronal differentiation score (ReNCell VM [1]; library: Prestwick) 0 | dopaminergic neuron differentiation score (ReNCell VM [2]; library: Phytochemical) 0 | dopaminergic neuron differentiation score (ReNCell VM [2]; library: Prestwick) 0

O=c1[nH]c2ccccc2n1C1CCN(CCCC(c2ccc(F)cc2)c2ccc(F)cc2)CC1 [Pimozide]
inactive: neuronal differentiation score (ReNCell VM [1]; library: LOPAC) 0 | neuronal differentiation score (ReNCell VM [1]; library: Prestwick) 0 | neuronal differentiation score (ReNCell VM [1]; library: Tocriscreen) 0 | dopaminergic neuron differentiation score (ReNCell VM [2]; library: LOPAC) 0 | dopaminergic neuron differentiation score (ReNCell VM [2]; library: Prestwick) 0 | dopaminergic neuron differentiation score (ReNCell VM [2]; library: Tocriscreen) 0

CN1[C@@H]2C[C@@H](OC(=O)[C@H](CO)c3ccccc3)C[C@H]1[C@@H]1O[C@@H]12 [Scopolamine hydrochloride]
inactive: neuronal differentiation score (ReNCell VM [1]; library: Phytochemical) 0 | neuronal differentiation score (ReNCell VM [1]; library: Prestwick) 0 | dopaminergic neuron differentiation score (ReNCell VM [2]; library: Phytochemical) 0 | dopaminergic neuron differentiation score (ReNCell VM [2]; library: Prestwick) 0

C[C@]12CC[C@H](O)C[C@H]1CC[C@@H]1[C@@H]2C[C@@H](O)[C@]2(C)[C@@H](C3=CC(=O)OC3)CC[C@]12O [Digoxigenin]
inactive: neuronal differentiation score (ReNCell VM [1]; library: Phytochemical) 0 | neuronal differentiation score (ReNCell VM [1]; library: Prestwick) 0 | dopaminergic neuron differentiation score (ReNCell VM [2]; library: Phytochemical) 0 | dopaminergic neuron differentiation score (ReNCell VM [2]; library: Prestwick) 0

C1CCc2nnnn2CC1 [Pentylenetetrazole]
inactive: neuronal differentiation score (ReNCell VM [1]; library: LOPAC) 0 | neuronal differentiation score (ReNCell VM [1]; library: Prestwick) 0 | neuronal differentiation score (ReNCell VM [1]; library: Tocriscreen) 0 | dopaminergic neuron differentiation score (ReNCell VM [2]; library: LOPAC) 0 | dopaminergic neuron differentiation score (ReNCell VM [2]; library: Prestwick) 0 | dopaminergic neuron differentiation score (ReNCell VM [2]; library: Tocriscreen) 0

CN(C)C(=O)Oc1ccc[n+](C)c1 [Pyridostigmine bromide]
inactive: neuronal differentiation score (ReNCell VM [1]; library: LOPAC) 0 | neuronal differentiation score (ReNCell VM [1]; library: Phytochemical) 0 | dopaminergic neuron differentiation score (ReNCell VM [2]; library: LOPAC) 0 | dopaminergic neuron differentiation score (ReNCell VM [2]; library: Phytochemical) 0

O=c1[nH]c2ccccc2n1CCCN1CCC(n2c(=O)[nH]c3cc(Cl)ccc32)CC1 [Domperidone]
inactive: neuronal differentiation score (ReNCell VM [1]; library: LOPAC) 0 | neuronal differentiation score (ReNCell VM [1]; library: Prestwick) 0 | neuronal differentiation score (ReNCell VM [1]; library: Tocriscreen) 0 | dopaminergic neuron differentiation score (ReNCell VM [2]; library: LOPAC) 0 | dopaminergic neuron differentiation score (ReNCell VM [2]; library: Prestwick) 0 | dopaminergic neuron differentiation score (ReNCell VM [2]; library: Tocriscreen) 0

C=CCN1CC[C@]23c4c5ccc(O)c4O[C@H]2C(=O)CC[C@@]3(O)[C@H]1C5 [Naloxone hydrochloride]
inactive: neuronal differentiation score (ReNCell VM [1]; library: LOPAC) 1 | neuronal differentiation score (ReNCell VM [1]; library: Prestwick) 0 | neuronal differentiation score (ReNCell VM [1]; library: Tocriscreen) 0 | dopaminergic neuron differentiation score (ReNCell VM [2]; library: LOPAC) 0 | dopaminergic neuron differentiation score (ReNCell VM [2]; library: Prestwick) 0 | dopaminergic neuron differentiation score (ReNCell VM [2]; library: Tocriscreen) 0

COc1ccc2c(c1)[C@]13CCCC[C@@H]1[C@H](C2)N(C)CC3 [Dextromethorphan hydrobromide monohydrate]
inactive: neuronal differentiation score (ReNCell VM [1]; library: LOPAC) 0 | neuronal differentiation score (ReNCell VM [1]; library: Prestwick) 0 | dopaminergic neuron differentiation score (ReNCell VM [2]; library: LOPAC) 0 | dopaminergic neuron differentiation score (ReNCell VM [2]; library: Prestwick) 0

N[C@@H]1C[C@H]1c1ccccc1 [Tranylcypromine hydrochloride]
inactive: neuronal differentiation score (ReNCell VM [1]; library: LOPAC) -2 | neuronal differentiation score (ReNCell VM [1]; library: Prestwick) -1 | neuronal differentiation score (ReNCell VM [1]; library: Tocriscreen) -1 | dopaminergic neuron differentiation score (ReNCell VM [2]; library: LOPAC) 0 | dopaminergic neuron differentiation score (ReNCell VM [2]; library: Prestwick) 0 | dopaminergic neuron differentiation score (ReNCell VM [2]; library: Tocriscreen) 0

COc1cc2c(c(OC)c1OC)-c1ccc(OC)c(=O)cc1[C@@H](NC(C)=O)CC2 [Colchicine]
inactive: neuronal differentiation score (ReNCell VM [1]; library: LOPAC) -1 | neuronal differentiation score (ReNCell VM [1]; library: Phytochemical) 0 | neuronal differentiation score (ReNCell VM [1]; library: Prestwick) 0 | neuronal differentiation score (ReNCell VM [1]; library: Tocriscreen) 0 | dopaminergic neuron differentiation score (ReNCell VM [2]; library: LOPAC) 0 | dopaminergic neuron differentiation score (ReNCell VM [2]; library: Phytochemical) 0 | dopaminergic neuron differentiation score (ReNCell VM [2]; library: Prestwick) 0 | dopaminergic neuron differentiation score (ReNCell VM [2]; library: Tocriscreen) 0
